Experimental data as given in PubChem BioAssay AID445 (National Center for Advancing Translational Sciences (NCATS), 2006).
The other results are listed elsewhere or left out. The main result of the screen is listed elsewhere. These columns were measured beside it and carry no call. Compounds called inactive in the main read-out are mostly missing here. Words in brackets tell the shape of the fitted curve; partial curves, single points and poor fits give uncertain potencies.

Assay: IkB Signaling
Settings: ABC-DLBCL IkBa-CBG/CBR dual luciferase ratio (green luciferase fused to IkBa over red control in OCI-Ly3 lymphoma cells), 4 h; measured here: control luc red channel unless noted
Outline: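 In this assay, an IκBα–CBG68 fusion accumulates when IKK-driven degradation is blocked; native CBR normalizes for cell number. OCI-Ly3 cells were treated 4 h with compound and doxycycline, then green and red light read after Chroma-Glo addition.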
With `c1ccc2nc(-c3nc4ccccc4o3)ccc2c1` the AC50 was 3.16 µM [falling, full curve]. In the case of `COC(=O)c1cc(Cl)c(NC(=O)/C=C/c2ccc(Cl)cc2Cl)cc1OC`, the AC50 is reported as 10 µM [falling, partial curve]. With `COc1ccccc1C(=O)NCCc1nc2ccccc2[nH]1` the AC50 was 10 µM [falling, partial curve]. With `Cc1cccc(Oc2nc3c(C)cccn3c(=O)c2/C=C(\C#N)c2nc3ccccc3s2)c1` the AC50 was 12.6 µM [falling, single point]. With `CCOc1ccc(N2CC(c3nc4ccccc4n3CCCOc3ccc(OC)cc3)CC2=O)cc1` (centres undefined) the AC50 was 15.8 µM [falling, partial curve]. For `CC(O)CNC(=O)C1CCN(Cc2ccc(OCc3ccccc3)cc2)CC1` (centres undefined), the AC50 was 5.01 µM [falling, partial curve]. In the case of `COCCNC(=O)CSc1nnc(-c2ccc(OC)c(OC)c2)c(-c2ccc(OC)c(OC)c2)n1`, the AC50 is reported as 3.16 µM [rising, full curve, poor fit]. With `COC(=O)c1c(NC(=O)c2ccc(S(=O)(=O)N3CCCCC3C)cc2)sc2c1CCN(C(C)C)C2` (centres undefined) the AC50 was 20 µM [falling, partial curve]. For `COc1ccc(-c2noc(CSc3nnc(-c4ccncc4)n3-c3ccccc3)n2)cc1`, the AC50 was 25.1 µM [falling, partial curve]. In the case of `Cc1ccccc1-c1noc(CSc2nnc(Cc3ccccc3)n2-c2ccc(F)cc2)n1`, the AC50 is reported as 31.6 µM [falling, partial curve]. With `Nc1c(-c2ccc(Cl)cc2)nnn1-c1ccccc1` the AC50 was 10 µM [falling, partial curve]. In the case of `CCC(C)n1c(=N)c(S(=O)(=O)c2ccc(C)cc2)cc2c(=O)n3cc(C)ccc3nc21` (centres undefined), the AC50 is reported as 0.251 µM [rising, full curve]. In the case of `O=S(=O)(Cc1ccccc1)N1CCC(c2nc(-c3cccs3)no2)CC1`, the AC50 is reported as 25.1 µM [falling, partial curve]. For `CC1=CC(=C2C(=O)c3ccccc3C2=O)C=C(C)N1Cc1ccco1`, the AC50 was 15.8 µM [falling, partial curve]. In the case of `Cc1ccc(-n2ncc3c(NNC(=O)c4ccccc4C)ncnc32)cc1`, the AC50 is reported as 6.31 µM [falling, partial curve]. In the case of `CC(C)c1ccc(C2c3c(-c4ccccc4O)n[nH]c3C(=O)N2CCc2ccccc2)cc1` (centres undefined), the AC50 is reported as 20 µM [falling, partial curve]. In the case of `CC1=C(C(=O)Nc2ccccc2)C(c2ccc(C(=O)O)cc2)n2nc(SCC(=O)c3ccc(C)cc3)nc2N1` (centres undefined), the AC50 is reported as 7.94 µM [rising, single point]. For `CCN(CC)CCn1c(=N)n(CC(O)COc2ccccc2C)c2ccccc21` (centres undefined), the AC50 was 25.1 µM [falling, single point]. With `Cc1ccc(Cn2c(=O)c3c(nc4n3CCN4c3cc(C)cc(C)c3)n(C)c2=O)cc1` the AC50 was 12.6 µM [falling, partial curve]. For `COc1ccc(-c2nc(CCNC(=O)c3cc(OC)c(OC)c(OC)c3)cs2)cc1`, the AC50 was 10 µM [falling, partial curve, poor fit]. For `COc1ccc(CNC(=O)Cc2c(C)c3c(cc(C)c4c(C)coc43)oc2=O)cc1`, the AC50 was 25.1 µM [falling, single point]. In the case of `Cc1ccc(-c2nnc(Nc3ccc(Cl)cc3)c3ccccc23)cc1S(=O)(=O)NCC1CCCO1` (centres undefined), the AC50 is reported as 5.01 µM [falling, full curve]. For `O=C(c1cccc(Cl)c1)N1CCC(c2nc3c(nnn3Cc3ccc(F)cc3F)c(=O)[nH]2)CC1`, the AC50 was 39.8 µM [falling, single point]. For `COc1ccc(C(=O)c2cn(Cc3ccccc3F)c3ccc(F)cc3c2=O)cc1`, the AC50 was 31.6 µM [falling, single point]. For `COc1ccc(-c2[nH]c(-c3ccc(OC)c(OC)c3)nc2SCC(=O)Nc2ccccc2)cc1`, the AC50 was 7.94 µM [falling, partial curve]. With `Cc1ccc(Nc2c(-c3ccc(N(C)C)cc3)nc3ccccn23)cc1` the AC50 was 39.8 µM [falling, single point]. For `C=C(C)COc1ccc(-c2[nH]ncc2Oc2ccccc2OC)c(O)c1`, the AC50 was 39.8 µM [falling, single point]. In the case of `CCOc1ccccc1C(=O)N(Cc1ccc(N(C)C)cc1)Cc1ccco1`, the AC50 is reported as 25.1 µM [falling, single point]. With `CCCCOc1cccc(C(=O)N(Cc2ccc(Cl)cc2)C2CCS(=O)(=O)C2)c1` (centres undefined) the AC50 was 39.8 µM [falling, single point]. For `COc1ccc(CCNC(=O)CSc2nnc(-c3ccc(C)cc3)c(-c3ccc(C)cc3)n2)cc1OC`, the AC50 was 39.8 µM [falling, single point]. With `COc1cc2c(cc1NC(=O)CN1C(=O)NC3(CCc4ccccc43)C1=O)oc1ccccc12` (centres undefined) the AC50 was 15.8 µM [falling, partial curve]. For `COc1ccc(N(CC(=O)N2c3ccccc3CC2C)S(=O)(=O)c2c(C)noc2C)cc1` (centres undefined), the AC50 was 3.16 µM [falling, partial curve]. With `CC(=O)c1ccc(N2CCN(C(=O)CS(=O)(=O)c3cccc4nsnc34)CC2)cc1` the AC50 was 1 µM [rising, full curve, poor fit]. With `COc1ccccc1NC(=O)N1CC=C(c2c[nH]c3ccccc23)CC1` the AC50 was 25.1 µM [falling, partial curve]. With `CCOc1ccc(C(=O)NCCS(=O)(=O)N2CCN(c3cccc(Cl)c3)CC2)cc1` the AC50 was 1.58 µM [rising, full curve]. With `O=c1c2c(nc3c(-c4cccc5ccccc45)c[nH]n13)CCC2` the AC50 was 1.58 µM [falling, full curve, poor fit]. With `Cc1cc(=O)[nH]c2nnc(SCCC(C)C)n12` the AC50 was 3.16 µM [rising, single point]. For `CC1CN(C(=O)CCC(=O)NCc2cccs2)c2ccccc2O1` (centres undefined), the AC50 was 25.1 µM [falling, single point]. With `CCOC(=O)Cc1csc(NC(=O)CCS(=O)(=O)Cc2ccccc2)n1` the AC50 was 7.94 µM [falling, partial curve] [measured here: IkB-luc green channel].
